Laboratory results: patent publication US20050256134A1, “Use of creatine analogues and creatine kinase modulators for the prevention and treatment of glucose metabolic disorders” (AVICENA GROUP, INC., priority 1995, published 2005)
This continues a long series; more values of the same kind are listed elsewhere.

Tested on: terminal cancer patients
Test: Phase I/II open label dose escalation study, glucose levels, 3 hour continuous infusion
Type: in vivo, human
Protocol: Cyclocreatine was tested in humans in a phase I/II open label dose escalation study. […] Cyclocreatine was administered at doses that ranged from 10 mg/Kg to 100 mg/Kg. The schedule of administration of cyclocreatine is described in Table 4.
Cohorts of 3 patients were administered drug at each dose level, via a 3 hour continuous infusion in one liter volume of saline. The first week patients received cyclocreatine once, the second week patients received cyclocreatine twice, the third week three times, the fourth week four times, the fifth week five times. On weeks six and seven, no drug was administered to allow the drug to wash out. On week eight, cyclocreatine was given five times. The study included a total of 23 patients (18 male, 5 female) with a median age of 71 years (range 54-85). The patients had different types of malignancies. Eligibility requirements included patients who have failed standard therapy or for whom no therapy was available, normal organ function, have recovered from prior therapies, probability of survival of greater than three months. Reasons for exclusion included: major surgery, life threatening concurrent illness and CNS metastasis. Blood samples were collected at baseline and 1 day before and after the last weekly drug administration on days 1, 7, 9, 14, 17, 21, 25, 28, 33, 40, 47, 49, 54, 61, and 69. Glucose levels were determined for these collected blood samples. […] Not all patients experienced a significant drop in glucose although the trend was there. FIGS. 14 and 15 illustrate graphically individual patients' glucose levels upon treatment with 60 mg/Kg or 80 mg/Kg cyclocreatine. Patient (A) at the 80 mg/Kg dose was diabetic and had many serious complications due to their disease. […] It should be noted that an insufficient number of readings was made shortly after drug administration. It is interesting to note that several patients who were diabetic or had higher glucose levels than normal did respond to cyclocreatine, onen example being illustrated in FIG. 16.

Question: Which results are given for `NC1=NCCN1CC(=O)O` [cyclocreatine]?
Answer: Glucose (Patient 15, 80 mg/Kg, Study Day 17): 63 mg/dL; Glucose (Patient 15, 80 mg/Kg, Study Day 21): 72 mg/dL; Glucose (Patient 15, 80 mg/Kg, Study Day 25): 62 mg/dL; Glucose (Patient 15, 80 mg/Kg, Study Day 28): 89 mg/dL; Glucose (Patient 15, 80 mg/Kg, Study Day 33): 67 mg/dL; Glucose (Patient 15, 80 mg/Kg, Study Day 40): 106 mg/dL; Glucose (Patient 15, 80 mg/Kg, Study Day 47): 77 mg/dL; Glucose (Patient 15, 80 mg/Kg, Study Day 49): 89 mg/dL; Glucose (Patient 15, 80 mg/Kg, Study Day 54): 87 mg/dL; Glucose (Patient 15, 80 mg/Kg, Study Day 61): 81 mg/dL; Glucose (Patient 15, 80 mg/Kg, Study Day 69): 81 mg/dL; Glucose (Patient 16, 80 mg/Kg, Study Day 0): 182 mg/dL; Glucose (Patient 16, 80 mg/Kg, Study Day 1): 102 mg/dL; Glucose (Patient 16, 80 mg/Kg, Study Day 7): 102 mg/dL; Glucose (Patient 16, 80 mg/Kg, Study Day 9): 68 mg/dL; Glucose (Patient 16, 80 mg/Kg, Study Day 14): 94 mg/dL; Glucose (Patient 16, 80 mg/Kg, Study Day 17): 47 mg/dL; Glucose (Patient 16, 80 mg/Kg, Study Day 21): 30 mg/dL; Glucose (Patient 17, 100 mg/Kg, Study Day 0): 121 mg/dL; Glucose (Patient 17, 100 mg/Kg, Study Day 1): 122 mg/dL; Glucose (Patient 17, 100 mg/Kg, Study Day 7): 127 mg/dL; Glucose (Patient 17, 100 mg/Kg, Study Day 9): 145 mg/dL; Glucose (Patient 17, 100 mg/Kg, Study Day 14): 71 mg/dL; Glucose (Patient 17, 100 mg/Kg, Study Day 17): 150 mg/dL; Glucose (Patient 17, 100 mg/Kg, Study Day 21): 104 mg/dL; Glucose (Patient 17, 100 mg/Kg, Study Day 25): 102 mg/dL; Glucose (Patient 17, 100 mg/Kg, Study Day 28): 125 mg/dL; Glucose (Patient 17, 100 mg/Kg, Study Day 33): 136 mg/dL; Glucose (Patient 17, 100 mg/Kg, Study Day 40): 162 mg/dL; Glucose (Patient 17, 100 mg/Kg, Study Day 47): 108 mg/dL; Glucose (Patient 17, 100 mg/Kg, Study Day 49): 80 mg/dL; Glucose (Patient 17, 100 mg/Kg, Study Day 54): 114 mg/dL; Glucose (Patient 17, 100 mg/Kg, Study Day 61): 122 mg/dL; Glucose (Patient 17, 100 mg/Kg, Study Day 69): 86 mg/dL; Glucose (Patient 18, 100 mg/Kg, Study Day 0): 122 mg/dL; Glucose (Patient 18, 100 mg/Kg, Study Day 1): 98 mg/dL; Glucose (Patient 18, 100 mg/Kg, Study Day 7): 104 mg/dL; Glucose (Patient 18, 100 mg/Kg, Study Day 9): 84 mg/dL; Glucose (Patient 18, 100 mg/Kg, Study Day 14): 126 mg/dL; Glucose (Patient 18, 100 mg/Kg, Study Day 17): 97 mg/dL; Glucose (Patient 18, 100 mg/Kg, Study Day 21): 85 mg/dL; Glucose (Patient 18, 100 mg/Kg, Study Day 25): 80 mg/dL; Glucose (Patient 18, 100 mg/Kg, Study Day 28): 71 mg/dL; Glucose (Patient 18, 100 mg/Kg, Study Day 33): 119 mg/dL; Glucose (Patient 18, 100 mg/Kg, Study Day 47): 114 mg/dL; Glucose (Patient 18, 100 mg/Kg, Study Day 49): 95 mg/dL; Glucose (Patient 18, 100 mg/Kg, Study Day 54): 49 mg/dL; Glucose (Patient 18, 100 mg/Kg, Study Day 61): 80 mg/dL; Glucose (Patient 18, 100 mg/Kg, Study Day 69): 84 mg/dL; Glucose (Patient 19, 100 mg/Kg, Study Day 0): 115 mg/dL; Glucose (Patient 19, 100 mg/Kg, Study Day 1): 101 mg/dL; Glucose (Patient 19, 100 mg/Kg, Study Day 7): 87 mg/dL; Glucose (Patient 19, 100 mg/Kg, Study Day 9): 92 mg/dL; Glucose (Patient 19, 100 mg/Kg, Study Day 21): 50 mg/dL; Glucose (Patient 20, 100 mg/Kg, Study Day 0): 104 mg/dL; Glucose (Patient 20, 100 mg/Kg, Study Day 1): 104 mg/dL; Glucose (Patient 20, 100 mg/Kg, Study Day 7): 160 mg/dL; Glucose (Patient 20, 100 mg/Kg, Study Day 9): 77 mg/dL; Glucose (Patient 20, 100 mg/Kg, Study Day 14): 90 mg/dL; Glucose (Patient 20, 100 mg/Kg, Study Day 17): 151 mg/dL; Glucose (Patient 20, 100 mg/Kg, Study Day 21): 76 mg/dL; Glucose (Patient 20, 100 mg/Kg, Study Day 25): 111 mg/dL; Glucose (Patient 20, 100 mg/Kg, Study Day 28): 137 mg/dL; Glucose (Patient 20, 100 mg/Kg, Study Day 33): 165 mg/dL; Glucose (Patient 20, 100 mg/Kg, Study Day 40): 141 mg/dL; Glucose (Patient 20, 100 mg/Kg, Study Day 47): 101 mg/dL; Glucose (Patient 20, 100 mg/Kg, Study Day 49): 99 mg/dL; Glucose (Patient 20, 100 mg/Kg, Study Day 54): 91 mg/dL; Glucose (Patient 21, 100 mg/Kg, Study Day 0): 158 mg/dL; Glucose (Patient 21, 100 mg/Kg, Study Day 1): 178 mg/dL; Glucose (Patient 21, 100 mg/Kg, Study Day 7): 99 mg/dL; Glucose (Patient 21, 100 mg/Kg, Study Day 9): 246 mg/dL; Glucose (Patient 21, 100 mg/Kg, Study Day 14): 100 mg/dL; Glucose (Patient 22, 100 mg/Kg, Study Day 0): 137 mg/dL; Glucose (Patient 22, 100 mg/Kg, Study Day 1): 170 mg/dL; Glucose (Patient 22, 100 mg/Kg, Study Day 7): 108 mg/dL; Glucose (Patient 22, 100 mg/Kg, Study Day 9): 91 mg/dL; Glucose (Patient 22, 100 mg/Kg, Study Day 14): 87 mg/dL; Glucose (Patient 22, 100 mg/Kg, Study Day 17): 84 mg/dL; Glucose (Patient 22, 100 mg/Kg, Study Day 21): 77 mg/dL; Glucose (Patient 22, 100 mg/Kg, Study Day 25): 77 mg/dL; Glucose (Patient 22, 100 mg/Kg, Study Day 28): 109 mg/dL; Glucose (Patient 22, 100 mg/Kg, Study Day 33): 143 mg/dL; Glucose (Patient 22, 100 mg/Kg, Study Day 40): 107 mg/dL; Glucose (Patient 22, 100 mg/Kg, Study Day 47): 121 mg/dL; Glucose (Patient 22, 100 mg/Kg, Study Day 49): 119 mg/dL; Glucose (Patient 22, 100 mg/Kg, Study Day 54): 71 mg/dL; Glucose (Patient 22, 100 mg/Kg, Study Day 61): 109 mg/dL; Glucose (Patient 22, 100 mg/Kg, Study Day 69): 107 mg/dL; Glucose (Patient 23, 100 mg/Kg, Study Day 0): 168 mg/dL; Glucose (Patient 23, 100 mg/Kg, Study Day 1): 216 mg/dL; Glucose (Patient 23, 100 mg/Kg, Study Day 7): 228 mg/dL; Glucose (Patient 23, 100 mg/Kg, Study Day 9): 173 mg/dL; Glucose (Patient 23, 100 mg/Kg, Study Day 17): 184 mg/dL; Glucose (Patient 23, 100 mg/Kg, Study Day 21): 163 mg/dL; Glucose (Patient 23, 100 mg/Kg, Study Day 25): 257 mg/dL; Glucose (Patient 23, 100 mg/Kg, Study Day 28): 325 mg/dL; Glucose (Patient 23, 100 mg/Kg, Study Day 33): 288 mg/dL
